Experimental data: PubChem BioAssay AID1259308 (NCATS, 2017)
Assay: 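Genes whose loss raises luciferase production in HEK293 cells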 (primary screen). Cell system: human HEK293 embryonic kidney cells stably expressing firefly luciferase (HEK-CMV-Luc2-Hygro). Knock-down reagent: single siRNA against human genes, 0.8 pmol siRNA per well. Duration: 72 h. Measured: 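Reporter luminescence and viable-cell signal on separate replicate plates, given as percent of non-targeting control and median/MAD z-scores, plus per-cell luciferase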. Direction: total luciferase, z-score and total luciferase, % of control: higher = more reporter protein produced. Call rule: 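Active when the median/MAD z-score for overall luciferase is greater than 3; a gene was taken forward for validation with new siRNAs if at least two of its three siRNAs passed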. Calls: active = raised luciferase; inactive = no rise.
In all, the deposit lists about 59,000 reagents; this is a random part of them. About 1,510 of them (2.6%) count as active. 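Calls use total luciferase alone and ignore viability, so some active siRNAs may act by altering cell number.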 Entries without a mark were called inactive. The numbers tell different reagents against one gene apart. Further read-outs or replicates are left out here.

ATG9B (autophagy related 9B) #1 → total luciferase, z-score = 0.845; total luciferase, % of control = 98.7
ATG9B (autophagy related 9B) #2 → total luciferase, z-score = 2.32; total luciferase, % of control = 128
ATG9B (autophagy related 9B) #3 → total luciferase, z-score = -1.23; total luciferase, % of control = 57.4
OR10A6 #1 → total luciferase, z-score = 0.387; total luciferase, % of control = 89.6
OR10A6 #2 → total luciferase, z-score = -0.432; total luciferase, % of control = 73.3
OR10A6 #3 → total luciferase, z-score = 1.75; total luciferase, % of control = 117
DDIT3 (DNA damage inducible transcript 3) #1 → total luciferase, z-score = 5.72 (active); total luciferase, % of control = 196
DDIT3 (DNA damage inducible transcript 3) #2 → total luciferase, z-score = 0.224; total luciferase, % of control = 86.3
DDIT3 (DNA damage inducible transcript 3) #3 → total luciferase, z-score = -0.345; total luciferase, % of control = 75
OR4M2 (olfactory receptor family 4 subfamily M member 2) #1 → total luciferase, z-score = 0.394; total luciferase, % of control = 89.7
OR4M2 (olfactory receptor family 4 subfamily M member 2) #2 → total luciferase, z-score = 1.19; total luciferase, % of control = 105
OR4M2 (olfactory receptor family 4 subfamily M member 2) #3 → total luciferase, z-score = -1.73; total luciferase, % of control = 47.5
DHFR2 (dihydrofolate reductase 2) #1 → total luciferase, z-score = -1.96; total luciferase, % of control = 43
DHFR2 (dihydrofolate reductase 2) #2 → total luciferase, z-score = -1.41; total luciferase, % of control = 53.9
DHFR2 (dihydrofolate reductase 2) #3 → total luciferase, z-score = 0.384; total luciferase, % of control = 89.5
ZSWIM5 (zinc finger SWIM-type containing 5) #1 → total luciferase, z-score = 3.04 (active); total luciferase, % of control = 142
ZSWIM5 (zinc finger SWIM-type containing 5) #2 → total luciferase, z-score = 0.876; total luciferase, % of control = 99.3
ZSWIM5 (zinc finger SWIM-type containing 5) #3 → total luciferase, z-score = 1.36; total luciferase, % of control = 109
OSTN (osteocrin) #1 → total luciferase, z-score = -0.347; total luciferase, % of control = 75
OSTN (osteocrin) #2 → total luciferase, z-score = -0.187; total luciferase, % of control = 78.2
OSTN (osteocrin) #3 → total luciferase, z-score = 0.478; total luciferase, % of control = 91.4
ZNF563 (zinc finger protein 563) #1 → total luciferase, z-score = 0.0485; total luciferase, % of control = 82.9
ZNF563 (zinc finger protein 563) #2 → total luciferase, z-score = -0.501; total luciferase, % of control = 71.9
ZNF563 (zinc finger protein 563) #3 → total luciferase, z-score = -0.386; total luciferase, % of control = 74.2
SYT11 (synaptotagmin 11) #1 → total luciferase, z-score = 0.149; total luciferase, % of control = 84.9
SYT11 (synaptotagmin 11) #2 → total luciferase, z-score = -0.0169; total luciferase, % of control = 81.6
SYT11 (synaptotagmin 11) #3 → total luciferase, z-score = -1.68; total luciferase, % of control = 48.5
C3AR1 (complement C3a receptor 1) #1 → total luciferase, z-score = -0.208; total luciferase, % of control = 77.8
C3AR1 (complement C3a receptor 1) #2 → total luciferase, z-score = -0.47; total luciferase, % of control = 72.5
C3AR1 (complement C3a receptor 1) #3 → total luciferase, z-score = -0.933; total luciferase, % of control = 63.3
SPEF1 (sperm flagellar and cilia associated 1) #1 → total luciferase, z-score = 0.0184; total luciferase, % of control = 82.3
SPEF1 (sperm flagellar and cilia associated 1) #2 → total luciferase, z-score = 0.358; total luciferase, % of control = 89
SPEF1 (sperm flagellar and cilia associated 1) #3 → total luciferase, z-score = 0.507; total luciferase, % of control = 92

4 entries already listed, sorted by “total luciferase, z-score”, ascending.
SYT11 (synaptotagmin 11) #3 → total luciferase, z-score = -1.68; total luciferase, % of control = 48.5
ZNF563 (zinc finger protein 563) #3 → total luciferase, z-score = -0.386; total luciferase, % of control = 74.2
SYT11 (synaptotagmin 11) #2 → total luciferase, z-score = -0.0169; total luciferase, % of control = 81.6
SYT11 (synaptotagmin 11) #1 → total luciferase, z-score = 0.149; total luciferase, % of control = 84.9
